According to patent US20190367448A1, “TREATMENT OF SLEEP-WAKE DISORDERS” (SK Biopharmaceuticals Co., Ltd., priority 2005, published 2019):
At least one structure is not confirmed: it was looked up by name or label, or the drawing left a doubt.

Test system: male adult Sprague Dawley rats
Assay: Sleep-wake organization in rats, polysomnographic recording (EEG, EOG, EMG, body movement) for 16 hours after acute i.p. administration
Assay type: in vivo, rat

For `COC(=O)[C@H]1[C@@H](OC(=O)c2ccccc2)C[C@@H]2CC[C@H]1N2C` [Cocaine, cocaine], the all sleep latencies (10 mg/kg) was “increased”, the “mean duration of active wakefulness state” value (10 mg/kg) was “not affected” and the “active wakefulness (with reduced slow wave sleep and REM sleep)” value (10 mg/kg, first 3 to 4 hours following injection) was “significantly enhanced”. For the same compound, the “effect on the sleep-wake organization” value (1 and 3 mg/kg) was “only slightly affected” and the “effects on total sleep time and on the number of shifts from sleep toward wakefulness” value (the different doses tested) was “no effects”.
